These are yes or no findings as the source states them, for the method shown. In cells and extracts the contact can be indirect. Some entries that bind do so weakly or less than the wild type.

Protein sequences, listed by entry. Tags and fused reporters are not part of them.
UniProt Q9WTL8: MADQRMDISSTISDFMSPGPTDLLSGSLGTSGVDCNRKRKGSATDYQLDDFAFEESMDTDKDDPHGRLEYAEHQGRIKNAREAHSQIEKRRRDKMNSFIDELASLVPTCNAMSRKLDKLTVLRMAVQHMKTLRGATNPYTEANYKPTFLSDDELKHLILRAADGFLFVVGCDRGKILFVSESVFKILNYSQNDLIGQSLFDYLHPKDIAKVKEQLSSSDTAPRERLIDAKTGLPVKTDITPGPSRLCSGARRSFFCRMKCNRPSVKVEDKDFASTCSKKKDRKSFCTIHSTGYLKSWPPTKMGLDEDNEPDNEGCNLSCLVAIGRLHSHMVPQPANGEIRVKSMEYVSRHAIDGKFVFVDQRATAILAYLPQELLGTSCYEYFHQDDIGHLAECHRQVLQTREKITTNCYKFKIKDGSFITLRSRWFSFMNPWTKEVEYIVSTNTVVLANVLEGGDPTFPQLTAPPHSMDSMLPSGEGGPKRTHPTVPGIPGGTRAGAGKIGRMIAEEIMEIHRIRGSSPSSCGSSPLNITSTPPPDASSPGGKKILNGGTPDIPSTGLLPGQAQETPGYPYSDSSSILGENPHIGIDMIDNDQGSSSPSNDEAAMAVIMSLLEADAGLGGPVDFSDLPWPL

The target of the test is Brain and Muscle Arnt-Like Protein-1 (Bmal1) (mouse (endogenous in RAW264.7)) (UniProt Q9WTL8). In words: co-IP; lysate of LPS-induced RAW264.7 cells (M1 macrophages); Co-IP kit (BersinBio); protein A/G-MagBeads coupled with anti-Bmal1 and anti-S100A9 antibodies at 4°C overnight; nonspecific IgG as control; western blot.

B1: S100A9 protein (protein, UniProt P31725 1-113)
chain: MANKAPSQMERSITTIIDTFHQYSRKEGHPDTLSKKEFRQMVEAQLATFMKKEKRNEALINDIMEDLDTNQDNQLSFEECMMLMAKLIFACHEKLHENNPRGHGHSHGKGCGK
For the molecule B1, the binding entry is reported as “binds”.

Source of the values: PMC8006279.
